This is one part of the list.
Legend:
Test in all cases: log2 fold change, soluble protein after heating vs DMSO (PISA); higher = thermal stabilisation; K562 cells, 10 uM, 30 min; active = over 0.2 and 3.5 SD of the protein, either way, in both replicates (recomputed)
erlotinib = compound: C#Cc1cccc(Nc2ncnc3cc(OCCOC)c(OCCOC)cc23)c1 [erlotinib]
Summary of the method: (§1)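 Soluble protein was quantified by TMTpro 16plex LC-MS/MS after channel sums were equalised. It was obtained as the supernatant after 21,000xg for 90 min from pooled aliquots of K562 cells (2×10^6 cells/mL, 10 μM compound, 30 min) heated for 3 min across 48°C-58°C and extracted in PBS with 0.5% NP-40 at 4°C. Thermal stability values are relative to control samples and come from duplicates. They are given as log2 fold changes.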

By UniProt entry, the sequences of proteins in these tests, tags left out. Where a name states a change or a piece, a line headed by the entry shows the natural chain unless it says otherwise.
UniProt Q9NX08, whole entry, looked up: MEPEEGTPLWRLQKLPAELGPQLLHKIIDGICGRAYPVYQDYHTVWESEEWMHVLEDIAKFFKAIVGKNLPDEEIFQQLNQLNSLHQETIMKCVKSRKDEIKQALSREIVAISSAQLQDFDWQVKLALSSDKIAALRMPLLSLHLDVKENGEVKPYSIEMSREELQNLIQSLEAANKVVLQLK
UniProt Q9Y6N1: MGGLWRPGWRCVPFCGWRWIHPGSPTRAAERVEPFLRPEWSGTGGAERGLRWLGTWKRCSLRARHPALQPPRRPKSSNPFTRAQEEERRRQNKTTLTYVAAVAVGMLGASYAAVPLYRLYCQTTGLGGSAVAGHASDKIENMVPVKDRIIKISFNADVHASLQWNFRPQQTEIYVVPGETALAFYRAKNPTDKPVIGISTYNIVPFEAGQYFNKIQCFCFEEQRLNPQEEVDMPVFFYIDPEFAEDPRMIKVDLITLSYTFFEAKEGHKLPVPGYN
UniProt Q92905, whole entry, looked up: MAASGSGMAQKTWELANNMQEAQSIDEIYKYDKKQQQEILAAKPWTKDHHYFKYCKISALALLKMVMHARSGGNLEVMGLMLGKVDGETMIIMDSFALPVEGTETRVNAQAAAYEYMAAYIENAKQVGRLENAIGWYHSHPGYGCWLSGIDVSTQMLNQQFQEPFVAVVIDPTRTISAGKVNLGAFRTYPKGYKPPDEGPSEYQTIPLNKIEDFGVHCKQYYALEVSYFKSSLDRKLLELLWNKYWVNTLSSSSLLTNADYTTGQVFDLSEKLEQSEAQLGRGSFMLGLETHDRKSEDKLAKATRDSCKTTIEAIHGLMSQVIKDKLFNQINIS
UniProt Q86X83, whole entry, looked up: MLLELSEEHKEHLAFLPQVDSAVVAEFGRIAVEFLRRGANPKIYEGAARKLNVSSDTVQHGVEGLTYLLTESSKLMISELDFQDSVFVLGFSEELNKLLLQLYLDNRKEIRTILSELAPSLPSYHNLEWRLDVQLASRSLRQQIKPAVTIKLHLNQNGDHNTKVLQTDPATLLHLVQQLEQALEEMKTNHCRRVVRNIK
UniProt P13073, whole entry, looked up: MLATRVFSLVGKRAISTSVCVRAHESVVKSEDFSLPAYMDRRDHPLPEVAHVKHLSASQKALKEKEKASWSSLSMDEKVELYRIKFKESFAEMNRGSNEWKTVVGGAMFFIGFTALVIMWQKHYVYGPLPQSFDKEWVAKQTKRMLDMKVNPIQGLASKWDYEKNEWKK
UniProt Q9Y2Z9: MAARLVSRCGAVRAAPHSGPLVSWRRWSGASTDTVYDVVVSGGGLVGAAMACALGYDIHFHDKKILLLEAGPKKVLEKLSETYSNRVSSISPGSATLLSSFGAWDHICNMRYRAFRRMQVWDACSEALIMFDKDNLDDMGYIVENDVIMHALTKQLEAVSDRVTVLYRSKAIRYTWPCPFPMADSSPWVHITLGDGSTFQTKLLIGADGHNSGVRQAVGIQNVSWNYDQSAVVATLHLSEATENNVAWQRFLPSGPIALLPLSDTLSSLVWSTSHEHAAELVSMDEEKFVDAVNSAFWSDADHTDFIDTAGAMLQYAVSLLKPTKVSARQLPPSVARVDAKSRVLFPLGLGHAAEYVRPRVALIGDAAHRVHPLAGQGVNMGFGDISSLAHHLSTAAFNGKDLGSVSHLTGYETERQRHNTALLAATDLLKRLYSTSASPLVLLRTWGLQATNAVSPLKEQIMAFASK
UniProt Q9GZQ3, whole entry, looked up: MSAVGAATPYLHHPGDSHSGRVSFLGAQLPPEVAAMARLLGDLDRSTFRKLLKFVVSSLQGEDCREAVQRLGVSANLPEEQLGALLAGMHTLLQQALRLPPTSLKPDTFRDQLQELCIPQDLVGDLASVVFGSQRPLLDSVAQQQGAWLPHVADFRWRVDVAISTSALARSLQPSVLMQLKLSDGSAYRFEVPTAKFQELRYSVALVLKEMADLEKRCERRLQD
UniProt P61923: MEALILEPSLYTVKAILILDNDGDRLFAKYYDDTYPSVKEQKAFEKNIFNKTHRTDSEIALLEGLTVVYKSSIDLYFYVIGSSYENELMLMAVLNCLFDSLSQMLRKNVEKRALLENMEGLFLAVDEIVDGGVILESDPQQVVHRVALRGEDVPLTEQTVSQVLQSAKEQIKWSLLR
UniProt Q9BSW2: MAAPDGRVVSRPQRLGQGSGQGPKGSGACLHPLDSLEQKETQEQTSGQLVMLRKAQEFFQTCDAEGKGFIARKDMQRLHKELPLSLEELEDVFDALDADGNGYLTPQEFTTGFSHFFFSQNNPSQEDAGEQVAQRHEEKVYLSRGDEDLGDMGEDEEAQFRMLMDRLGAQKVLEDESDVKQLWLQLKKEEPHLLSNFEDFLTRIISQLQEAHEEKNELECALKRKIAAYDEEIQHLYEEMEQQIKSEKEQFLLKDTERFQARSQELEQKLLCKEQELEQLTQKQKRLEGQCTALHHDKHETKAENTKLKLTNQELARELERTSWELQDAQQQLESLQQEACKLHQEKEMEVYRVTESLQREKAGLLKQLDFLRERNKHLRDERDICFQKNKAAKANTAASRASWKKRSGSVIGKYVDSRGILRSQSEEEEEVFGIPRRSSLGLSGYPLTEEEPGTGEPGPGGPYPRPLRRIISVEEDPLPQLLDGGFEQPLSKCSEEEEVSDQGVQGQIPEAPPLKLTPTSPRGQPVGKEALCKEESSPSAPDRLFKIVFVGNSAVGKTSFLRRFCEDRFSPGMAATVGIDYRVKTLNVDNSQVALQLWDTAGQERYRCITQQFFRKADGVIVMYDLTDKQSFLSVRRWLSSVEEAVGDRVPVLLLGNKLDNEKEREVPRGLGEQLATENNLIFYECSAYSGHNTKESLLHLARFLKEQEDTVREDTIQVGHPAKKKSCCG
UniProt Q8NI60: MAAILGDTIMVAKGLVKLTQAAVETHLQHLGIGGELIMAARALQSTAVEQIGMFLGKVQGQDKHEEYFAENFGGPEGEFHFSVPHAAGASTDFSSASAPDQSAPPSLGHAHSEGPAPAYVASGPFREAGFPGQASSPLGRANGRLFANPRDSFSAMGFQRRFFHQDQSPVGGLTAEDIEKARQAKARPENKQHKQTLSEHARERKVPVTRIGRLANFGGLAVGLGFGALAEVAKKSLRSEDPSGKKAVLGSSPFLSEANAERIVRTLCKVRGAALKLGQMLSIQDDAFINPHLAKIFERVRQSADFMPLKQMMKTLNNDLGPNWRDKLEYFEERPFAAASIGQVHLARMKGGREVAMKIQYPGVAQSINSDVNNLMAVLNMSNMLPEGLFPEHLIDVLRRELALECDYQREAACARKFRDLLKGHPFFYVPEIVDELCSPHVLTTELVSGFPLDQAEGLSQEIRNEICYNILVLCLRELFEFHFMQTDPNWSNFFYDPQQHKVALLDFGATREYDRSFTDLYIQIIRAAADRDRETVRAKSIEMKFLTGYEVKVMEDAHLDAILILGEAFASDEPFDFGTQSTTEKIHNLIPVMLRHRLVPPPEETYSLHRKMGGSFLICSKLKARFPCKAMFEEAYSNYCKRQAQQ
UniProt O75976: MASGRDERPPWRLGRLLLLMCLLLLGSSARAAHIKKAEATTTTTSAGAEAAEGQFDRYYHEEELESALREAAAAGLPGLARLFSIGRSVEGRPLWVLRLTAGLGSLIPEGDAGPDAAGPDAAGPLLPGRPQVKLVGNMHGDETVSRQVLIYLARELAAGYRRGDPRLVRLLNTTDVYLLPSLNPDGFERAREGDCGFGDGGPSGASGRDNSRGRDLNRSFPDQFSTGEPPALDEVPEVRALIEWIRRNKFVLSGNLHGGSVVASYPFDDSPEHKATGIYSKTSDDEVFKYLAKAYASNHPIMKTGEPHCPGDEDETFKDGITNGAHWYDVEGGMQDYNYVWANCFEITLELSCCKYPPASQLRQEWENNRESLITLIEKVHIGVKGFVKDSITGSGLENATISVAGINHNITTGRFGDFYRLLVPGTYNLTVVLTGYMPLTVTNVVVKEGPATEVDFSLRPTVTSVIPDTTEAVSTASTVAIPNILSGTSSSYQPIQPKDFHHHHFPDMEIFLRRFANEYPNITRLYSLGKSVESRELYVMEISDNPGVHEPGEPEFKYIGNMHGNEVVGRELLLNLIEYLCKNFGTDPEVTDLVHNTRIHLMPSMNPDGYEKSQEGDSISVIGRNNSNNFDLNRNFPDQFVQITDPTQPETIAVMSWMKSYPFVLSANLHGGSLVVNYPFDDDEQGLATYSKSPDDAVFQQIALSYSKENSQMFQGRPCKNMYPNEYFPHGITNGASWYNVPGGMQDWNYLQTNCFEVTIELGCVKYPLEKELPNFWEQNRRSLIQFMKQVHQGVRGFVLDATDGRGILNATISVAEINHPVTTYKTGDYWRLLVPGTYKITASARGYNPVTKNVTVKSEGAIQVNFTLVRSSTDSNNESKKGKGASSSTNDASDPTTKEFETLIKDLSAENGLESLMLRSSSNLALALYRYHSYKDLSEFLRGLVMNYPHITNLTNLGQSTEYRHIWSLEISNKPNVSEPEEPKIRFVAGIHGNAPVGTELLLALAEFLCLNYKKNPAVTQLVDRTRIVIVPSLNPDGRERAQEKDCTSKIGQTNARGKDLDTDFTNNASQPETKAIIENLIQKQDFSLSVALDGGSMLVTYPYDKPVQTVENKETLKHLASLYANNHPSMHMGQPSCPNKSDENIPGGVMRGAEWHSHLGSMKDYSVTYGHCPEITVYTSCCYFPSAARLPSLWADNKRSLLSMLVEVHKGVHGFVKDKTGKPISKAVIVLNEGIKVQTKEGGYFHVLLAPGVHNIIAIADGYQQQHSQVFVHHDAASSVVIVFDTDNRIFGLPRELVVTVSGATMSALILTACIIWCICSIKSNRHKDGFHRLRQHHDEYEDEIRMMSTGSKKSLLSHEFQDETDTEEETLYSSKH
UniProt Q5HYK3: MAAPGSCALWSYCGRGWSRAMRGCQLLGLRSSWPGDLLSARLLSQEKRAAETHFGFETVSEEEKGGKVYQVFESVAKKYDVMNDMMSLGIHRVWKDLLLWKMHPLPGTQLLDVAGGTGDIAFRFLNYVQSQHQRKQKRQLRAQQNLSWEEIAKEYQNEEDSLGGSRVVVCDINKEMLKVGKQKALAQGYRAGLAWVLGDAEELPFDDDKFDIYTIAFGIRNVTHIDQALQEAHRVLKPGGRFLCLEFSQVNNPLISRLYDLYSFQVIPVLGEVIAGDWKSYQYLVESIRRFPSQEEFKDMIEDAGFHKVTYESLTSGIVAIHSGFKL
UniProt Q9ULV4, whole entry, looked up: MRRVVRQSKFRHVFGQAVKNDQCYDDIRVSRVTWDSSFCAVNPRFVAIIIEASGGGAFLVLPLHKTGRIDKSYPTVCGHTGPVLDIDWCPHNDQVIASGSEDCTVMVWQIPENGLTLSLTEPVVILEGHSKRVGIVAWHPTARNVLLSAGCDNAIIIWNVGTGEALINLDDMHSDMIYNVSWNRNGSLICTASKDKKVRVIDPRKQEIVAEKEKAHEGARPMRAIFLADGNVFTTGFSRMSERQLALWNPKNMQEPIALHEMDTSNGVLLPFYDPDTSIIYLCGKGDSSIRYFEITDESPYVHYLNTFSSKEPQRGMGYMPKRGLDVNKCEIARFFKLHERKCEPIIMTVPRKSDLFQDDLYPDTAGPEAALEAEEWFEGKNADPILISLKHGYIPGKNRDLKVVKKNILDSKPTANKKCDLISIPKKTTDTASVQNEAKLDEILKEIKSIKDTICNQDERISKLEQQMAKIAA
UniProt Q8IUI8: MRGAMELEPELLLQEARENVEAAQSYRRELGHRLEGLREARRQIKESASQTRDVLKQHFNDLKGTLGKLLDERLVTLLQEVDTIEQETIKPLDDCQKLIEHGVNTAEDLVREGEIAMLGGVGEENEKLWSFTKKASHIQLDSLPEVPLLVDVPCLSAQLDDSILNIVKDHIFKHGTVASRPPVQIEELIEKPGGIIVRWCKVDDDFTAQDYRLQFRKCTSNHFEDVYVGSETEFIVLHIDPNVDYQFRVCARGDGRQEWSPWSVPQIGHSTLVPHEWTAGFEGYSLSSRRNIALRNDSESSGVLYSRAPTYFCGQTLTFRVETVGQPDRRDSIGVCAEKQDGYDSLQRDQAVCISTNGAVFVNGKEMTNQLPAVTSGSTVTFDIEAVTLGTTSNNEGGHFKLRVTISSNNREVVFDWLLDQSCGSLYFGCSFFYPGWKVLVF
UniProt Q99829: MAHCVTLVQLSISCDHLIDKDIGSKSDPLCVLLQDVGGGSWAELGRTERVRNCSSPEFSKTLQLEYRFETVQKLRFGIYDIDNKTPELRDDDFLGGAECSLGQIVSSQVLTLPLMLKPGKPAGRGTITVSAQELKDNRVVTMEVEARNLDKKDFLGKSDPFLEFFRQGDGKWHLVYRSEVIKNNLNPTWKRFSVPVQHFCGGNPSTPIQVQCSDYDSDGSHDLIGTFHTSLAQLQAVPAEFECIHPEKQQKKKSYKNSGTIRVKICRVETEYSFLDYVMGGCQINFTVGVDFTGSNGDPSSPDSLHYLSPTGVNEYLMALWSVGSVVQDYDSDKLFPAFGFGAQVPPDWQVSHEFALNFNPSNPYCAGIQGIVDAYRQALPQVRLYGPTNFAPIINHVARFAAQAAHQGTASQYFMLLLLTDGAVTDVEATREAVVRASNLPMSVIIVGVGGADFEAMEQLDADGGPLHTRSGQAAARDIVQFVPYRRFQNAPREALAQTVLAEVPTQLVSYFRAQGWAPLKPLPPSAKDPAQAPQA

[1] = compound: C/C(=N\NC(=O)C1=CC(=CC=C1)S(=O)(=O)N2CCOCC2)/C3=C(C=CC(=C3)Cl)O
Summary of the method: as §1

[2] = compound: C1=CC(=C(C=C1Cl)C2=NC3=NC=CN=C3C(=N2)NC4=CC=NC=C4)F
Summary of the method: as §1

[3] = compound: C1=CC(=CC=C1C2=NC3=C(N2)C=C(C=C3)C(=O)N)OC4=CC=C(C=C4)Cl
Summary of the method: as §1

[4] = compound: C1=CC2=C(C=CC(=C2)/C=C\3/C(=O)NC(=NCC4=CC=CS4)S3)N=C1
Summary of the method: as §1

[5] = compound: C1=CC2=NC=CN=C2C=C1/C=C/3\C(=O)NC(=O)S3
Summary of the method: as §1

[6] = compound: C1=CC=C(C=C1)C2=NC(=C(N2)C3=CC=NC=C3)C4=CC(=C(C=C4)Cl)O
Summary of the method: as §1

[7] = compound: C1=CC=C2C(=C1)C3=NNC4=CC=CC(=C43)C2=O
Summary of the method: as §1

[8] = compound: C1CCN(C1)C(=O)NC2=CC=CC(=C2)NC3=NC=C(C(=N3)NCCC4=CN=CN4)Br
Summary of the method: as §1

[9] = compound: C1CN(CCC1(CC2=CC=C(C=C2)Cl)N)C3=NC=NC4=C3C=CN4
Summary of the method: as §1

Measured: log2 fold change

COLGALT2 (UniProt Q8IYK4)
inactive: erlotinib -0.098 | [1] -0.06 | [2] -0.086 | [3] 0.072 | [4] -0.036 | [5] -0.004 | [6] -0.045 | [7] 0.028 | [8] -0.01 | [9] -0.056

COMMD8 (UniProt Q9NX08)
inactive: erlotinib -0.059 | [1] 0.018 | [2] 0.007 | [3] 0.091 | [4] 0.12 | [5] 0.144 | [6] 0.089 | [7] -0.007 | [8] -0.106 | [9] -0.198

CSNK1D (UniProt P48730)
inactive: erlotinib 0.033 | [1] -0.02 | [2] -0.143 | [3] 0.011 | [4] -0.05 | [5] 0.051 | [6] 0.165 | [7] 0.258 | [8] -0.035 | [9] -0.086

CRELD2 isoform 5 (UniProt Q6UXH1)
inactive: erlotinib 0.026 | [1] -0.06 | [2] 0.099 | [3] 0.012 | [4] -0.083 | [5] 0.053 | [6] -0.043 | [7] -0.039 | [8] 0.044 | [9] 0.055

CPVL (UniProt Q9H3G5)
inactive: erlotinib 0.355 | [1] -0.101 | [2] 0.057 | [3] -0.128 | [4] -0.011 | [5] 0.106 | [6] -0.118 | [7] 0.045 | [8] 0.114 | [9] 0.072

COX11 (UniProt Q9Y6N1)
inactive: erlotinib -0.014 | [1] 0.074 | [2] 0.051 | [3] 0.073 | [4] 0.045 | [5] 0.025 | [6] 0.065 | [7] 0.049 | [8] -0.088 | [9] 0.029

COPS5 (UniProt Q92905)
inactive: erlotinib -0.005 | [1] 0.04 | [2] 0.045 | [3] 0.011 | [4] -0.026 | [5] 0.032 | [6] 0.052 | [7] 0.002 | [8] -0.007 | [9] 0.031

COPS4 (UniProt Q9BT78)
inactive: erlotinib -0.002 | [1] 0.061 | [2] 0.13 | [3] -0.004 | [4] 0.036 | [5] -0.006 | [6] 0.054 | [7] 0.024 | [8] -0.009 | [9] -0.002

CRYM-AS1 (UniProt A6NIL9)
inactive: erlotinib 0.13 | [1] -0.214 | [2] 0.027 | [3] 0.23 | [4] 0.089 | [5] -0.725 | [6] 0.024 | [7] 0.073 | [8] -0.27 | [9] 0.108

COQ3 (UniProt Q9NZJ6)
inactive: erlotinib -0.035 | [1] 0.169 | [2] 0.053 | [3] 0.011 | [4] -0.008 | [5] 0.024 | [6] 0.04 | [7] 0.153 | [8] -0.111 | [9] 0.044

COMMD2 (UniProt Q86X83)
inactive: erlotinib 0.114 | [1] 0.049 | [2] -0.053 | [3] 0.085 | [4] 0.091 | [5] -0.02 | [6] -0.017 | [7] 0.058 | [8] 0.071 | [9] -0.119

COX4I1 (UniProt P13073)
inactive: erlotinib -0.051 | [1] -0.02 | [2] 0.007 | [3] 0.029 | [4] -0.026 | [5] 0.02 | [6] 0.004 | [7] 0.011 | [8] 0.016 | [9] 0.043

COQ6 (UniProt Q9Y2Z9)
inactive: erlotinib 0.013 | [1] 0.051 | [2] 0.036 | [3] -0.015 | [4] 0.015 | [5] -0.045 | [6] 0.14 | [7] 0.119 | [8] 0.025 | [9] -0.026

CSDE1 isoform 4 (UniProt O75534)
inactive: erlotinib 0.021 | [1] 0.087 | [2] -0.244 | [3] -0.034 | [4] 0.038 | [5] -0.009 | [6] -0.055 | [7] 0.023 | [8] -0.015 | [9] -0.168

CPED1 (UniProt A4D0V7)
inactive: erlotinib -0.024 | [1] -0.15 | [2] -0.084 | [3] 0.072 | [4] -0.179 | [5] -0.056 | [6] 0.01 | [7] -0.033 | [8] -0.073 | [9] -0.022

COMMD5 (UniProt Q9GZQ3)
inactive: erlotinib -0.032 | [1] 0.028 | [2] 0.043 | [3] -0.003 | [4] 0.044 | [5] 0.081 | [6] -0.002 | [7] 0.031 | [8] -0.065 | [9] -0.005

CPOX (UniProt P36551)
inactive: erlotinib 0.031 | [1] 0.023 | [2] 0.033 | [3] -0.007 | [4] 0.002 | [5] 0.016 | [6] 0.017 | [7] -0.023 | [8] -0.008 | [9] 0.041

COPA isoform 2 (UniProt P53621)
inactive: erlotinib -0.036 | [1] 0.026 | [2] 0.049 | [3] 0 | [4] 0.024 | [5] 0.015 | [6] 0.027 | [7] -0.009 | [8] 0.015 | [9] 0.029

COPB2 (UniProt P35606)
inactive: erlotinib -0.02 | [1] 0.031 | [2] 0.067 | [3] -0.01 | [4] 0.004 | [5] 0.019 | [6] 0.007 | [7] -0.013 | [8] -0.003 | [9] 0.05

COQ7 (UniProt Q99807)
inactive: erlotinib 0.082 | [1] -0.014 | [2] 0.075 | [3] 0.023 | [4] -0.005 | [5] 0.068 | [6] -0.024 | [7] -0.009 | [8] 0.02 | [9] 0.052

COPZ1 isoform 4 (UniProt P61923)
inactive: erlotinib -0.08 | [1] 0.101 | [2] 0.188 | [3] -0.001 | [4] 0.087 | [5] 0.085 | [6] 0.078 | [7] 0.066 | [8] -0.063 | [9] -0.134

CRACR2A isoform 2 (UniProt Q9BSW2)
inactive: erlotinib 0.165 | [1] -0.004 | [2] 0.108 | [3] -0.135 | [4] -0.019 | [5] -0.009 | [6] 0.029 | [7] 0.038 | [8] -0.039 | [9] 0.007

COQ8A (UniProt Q8NI60)
inactive: erlotinib -0.056 | [1] 0.048 | [2] -0.009 | [3] 0.048 | [4] -0.048 | [5] 0.066 | [6] -0.006 | [7] 0.021 | [8] -0.041 | [9] -0.037

CREBBP (UniProt Q92793)
inactive: erlotinib -0.021 | [1] 0.088 | [2] 0.076 | [3] 0.029 | [4] 0.001 | [5] 0.027 | [6] -0.008 | [7] 0.016 | [8] -0.04 | [9] 0.037

CPD (UniProt O75976)
inactive: erlotinib -0.025 | [1] -0.08 | [2] 0.009 | [3] 0.028 | [4] 0.055 | [5] 0.011 | [6] -0.007 | [7] -0.041 | [8] -0.045 | [9] 0.008

COQ5 (UniProt Q5HYK3)
inactive: erlotinib 0.008 | [1] 0.134 | [2] 0.044 | [3] 0.058 | [4] 0.075 | [5] 0.034 | [6] -0.008 | [7] 0.027 | [8] 0.03 | [9] 0.012

CORO1C isoform 3 (UniProt Q9ULV4)
inactive: erlotinib -0.012 | [1] -0.011 | [2] 0.042 | [3] -0.061 | [4] -0.071 | [5] 0.069 | [6] 0.044 | [7] 0.022 | [8] -0.013 | [9] -0.057

Reprinted from above (2 entries):
COPZ1 isoform 4 (UniProt P61923)
inactive: erlotinib -0.08 | [1] 0.101 | [2] 0.188 | [3] -0.001 | [4] 0.087 | [5] 0.085 | [6] 0.078 | [7] 0.066 | [8] -0.063 | [9] -0.134

CRACR2A isoform 2 (UniProt Q9BSW2)
inactive: erlotinib 0.165 | [1] -0.004 | [2] 0.108 | [3] -0.135 | [4] -0.019 | [5] -0.009 | [6] 0.029 | [7] 0.038 | [8] -0.039 | [9] 0.007

The list goes on.

CRLF3 (UniProt Q8IUI8)
inactive: erlotinib 0.09 | [1] -0.034 | [2] 0.036 | [3] -0.015 | [4] 0.076 | [5] 0.019 | [6] -0.018 | [7] -0.028 | [8] 0.027 | [9] -0.04

CPNE1 (UniProt Q99829)
inactive: erlotinib 0.056 | [1] 0.019 | [2] 0.054 | [3] 0.008 | [4] 0.02 | [5] 0 | [6] -0.026 | [7] 0.041 | [8] 0.058 | [9] -0.009

CRTAP (UniProt O75718)
inactive: erlotinib -0.083 | [1] -0.093 | [2] -0.084 | [3] 0.015 | [4] -0.037 | [5] -0.007 | [6] 0.017 | [7] -0.013 | [8] -0.024 | [9] -0.086
